A short description of this assay: qHTS Assay to Find Inhibitors of Chronic Active B-Cell Receptor Signaling. As to conditions: ABC-DLBCL IkBa-CBG/CBR reporter, luminescence ratio (green luciferase fused to IkBa over red control in TMD8 lymphoma cells), 4 h. The method in brief: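 Cell line TMD8 (human ABC DLBCL), stably expressing tet-inducible CBG68-IkBa fusion and CBR; IMDM/0.5% FBS; cpd up to 46 uM; dox induction, 4 h, 37C/5% CO2; dual luminescence; green/red ratio; MG132 control.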
Background: In qHTS, concentration-response curves come from the screen itself.

The mark [1] stands for this setting: measured here: CBR red luminescence, cell number.
[2] abbreviates: measured here: IkBa-CBG green luminescence.

This is one part of the list. Shown are side measurements of this screen, not its main read-out; they come without a call. Most of these compounds were active or inconclusive in the main read-out, so they are no random draw. Words in brackets tell the shape of the fitted curve; partial curves, single points and poor fits give uncertain potencies.

One may read the AC50 as the concentration at which the activity in the assay is half-maximal.

With `C/C(=N\NC(=O)c1cccc(C)c1)c1cccc(NC(=O)c2ccco2)c1`, the AC50 under setting [1] is 22.4 µM [falling, single point].
Same read-out and setting: the result for `COc1ccccc1CCC(=O)NNC(=O)c1ccncc1` reads 29.1 µM [falling, single point].
On to `C=CCNC(=O)C1CC2Cn3c(nc4cc(C)c(C)cc43)C2N1C` (configuration not stated), for which the AC50 under setting [1] was 35.5 µM [rising, single point].
On the same count and under the same terms, the same measure for `CC1(C)Cc2ccccc2/C(=C/C(=O)N2CCCCCC2)N1`: 10.3 µM [falling, partial curve, poor fit]; for `CN(CCOc1ccc(Cl)cc1)C(=O)CNS(=O)(=O)c1ccc(N(C)C)c([N+](=O)[O-])c1`: 16.4 µM [falling, single point].
Turning to `COc1cccc(-c2ccc(NC(=O)C3CCCN(Cc4cnn(C)c4C)C3)cc2)c1` (configuration not stated), under setting [1], the AC50 is 12.6 µM [falling, single point].
On the same count and under the same terms, the result for `N#C/C(=C\c1ccc[nH]1)C(=O)c1ccccc1` reads 1 µM [rising, partial curve, poor fit]; that for `CCOC(=O)C(NC(=O)NCc1cccc(C(F)(F)F)c1)(OCC)C(F)(F)F` (configuration not stated), 6.51 µM [rising, partial curve, poor fit]; that for `COc1ccc(/C=N/NC(=O)c2nc(Cl)c(Cl)c(N)c2Cl)cc1COc1ccccc1F`, 0.447 µM [rising, full curve, poor fit].
The same measure, in the same setting: the result for `O=C(NC1CCCCC1)N1CCc2ccccc21` reads 18.4 µM [falling, partial curve]; that for `O=C(O)CN1C(=O)c2ccc(C(=O)c3ccccc3)cc2C1=O`, 0.794 µM [falling, full curve, poor fit]; that for `CC1(C)CC(CCNC(=O)CCl)(c2ccccc2)CCO1` (configuration not stated), 10 µM [falling, partial curve].
As to `CCOc1ccccc1OCCOc1ccc(F)cc1`, the AC50 under setting [1] was 3.55 µM [rising, full curve, poor fit].
Consider `O=S(=O)(c1cc(Cl)ccc1Br)N1CCOCC1`, for which, under setting [1], the AC50 is 1.3 µM [rising, full curve, poor fit].
Turning to `O=C(NNC(=S)Nc1cccc2ccccc12)c1cccc(Br)c1`, the AC50 under setting [1] was 0.92 µM [falling, full curve].
Same read-out and setting: the same measure for `CC(C)N(C(=O)CSc1nc2ccccc2n1Cc1ccc(F)cc1)C(C)C`: 3.66 µM [falling, partial curve].
In the case of `COc1ccc(NC(=O)C(CC(C)C)NC(=O)C2CCC(C)CC2)c(OC)c1` (configuration not stated), the AC50 under setting [1] is 3.16 µM [rising, partial curve, poor fit].
Still for that read-out and setting: the result for `COc1ccc(-c2csc3ncnc(N4CCN(S(=O)(=O)c5ccc(C)c(C)c5)CC4)c23)cc1` reads 18.4 µM [rising, partial curve, poor fit]; that for `COc1ccc(Nc2ncnc3ccccc23)c(OC)c1`, 14.6 µM [falling, single point]; that for `O=C(Nc1cccc(-n2cnnn2)c1)c1ccc(OC(F)(F)F)cc1`, 2.51 µM [rising, full curve, poor fit].
Still for that read-out and setting: the result for `COc1cc(OC)c(OC)cc1/C=N/NC(=O)c1cc(-c2cccn2C)n[nH]1` reads 35.5 µM [falling, single point].
Same read-out and setting: the result for `COc1ccccc1NC(=O)C1=C(C)NC(=O)NC1c1ccccc1[N+](=O)[O-]` (configuration not stated) reads 2.24 µM [falling, full curve]; that for `Cc1ccc(-n2ncc3c(N4CCN(C)CC4)ncnc32)cc1C`, 15.8 µM [falling, single point]; that for `CCN(CC)C(=O)CN(c1ccc(F)c(Cl)c1)S(C)(=O)=O`, 35.5 µM [rising, partial curve, poor fit].
On to `Cc1nc2ccccc2c2nc(NC(=O)C(F)(F)F)nn12`, for which the half-maximal activity concentration (AC50) under setting [1] is 4.47 µM [falling, full curve, poor fit].
As to `COc1ccc(C2=Nn3c(nnc3-c3ccccc3)SC2)cc1OC`, the concentration at half-maximal activity (AC50) under setting [2] is 29.1 µM [falling, single point].
As to `Cn1nnc(NC(=S)NC(=O)c2ccc(-c3ccc(Br)cc3)o2)n1`, the AC50 under setting [1] is 6.31 µM [rising, single point].
Same read-out and setting: the result for `COc1ccc(NC(=O)/C=C\C(=O)N(c2ccc(C(C)C)cc2)C(C(=O)NCc2ccco2)c2ccc(F)cc2)cc1` (configuration not stated) reads 7.94 µM [falling, partial curve, poor fit]; that for `COc1cnc(N(C)C)nc1Sc1cccc(Cl)c1`, 16.4 µM [rising, partial curve].
As to `Nc1[nH]ncc1C(=O)Nc1cccc(C(F)(F)F)c1`, the AC50 under setting [1] is 35.5 µM [rising, single point].
Same read-out and setting: the result for `Cc1sc2ncnc(N(C)C3CCCCC3)c2c1C` reads 7.08 µM [rising, partial curve, poor fit]; that for `O=C(CN1C(=O)NC2(CCCC2)C1=O)Nc1nc2ccccc2s1`, 20.6 µM [falling, partial curve]; that for `O=C(NCc1ccco1)C1CCN(c2nc3ccccc3n2Cc2ccccc2F)CC1`, 36.6 µM [falling, partial curve, poor fit].
Still for that read-out and setting: the result for `O=C(Nc1ccc(N2CCOCC2)c(Cl)c1)c1ccccc1Cl` reads 1.58 µM [falling, full curve].
In the case of `O=C(Nc1ccc(F)cc1F)c1cc(-c2ccco2)on1`, the AC50 under setting [1] is 5.01 µM [falling, partial curve].
Regarding `COCCCNC(=O)/C=C1\Sc2ccccc2N(Cc2ccccc2F)C1=O`, under setting [1], the AC50 is 28.2 µM [rising, single point].
Turning to `CC1=C(C)CS(=O)N(S(=O)(=O)c2ccc(Cl)cc2)C1` (configuration not stated), the AC50 by setting is: under setting [1], 35.5 µM [rising, single point]; under setting [2], 35.5 µM [falling, single point].
Turning to `C#CCOc1ccccc1/C=N/NC(=O)c1ccccc1OCc1ccccc1`, under setting [1], the AC50 is 0.316 µM [falling, full curve].
Regarding `COc1ccc(C)cc1S(=O)(=O)NC1CCCCC1C` (configuration not stated), under setting [1], the AC50 is 0.731 µM [falling, partial curve, poor fit].
In the case of `O=C(CC1SC(=Nc2ccccc2)N(Cc2ccccn2)C1=O)Nc1cccc(Cl)c1` (configuration not stated), under setting [2], the AC50 is 29.1 µM [rising, partial curve, poor fit].
On to `O=C(NCc1ccco1)C(=O)c1c[nH]c2ccccc12`, for which the AC50 under setting [1] is 7.08 µM [falling, partial curve].
The same measure, in the same setting: the same measure for `CN(Cc1ccco1)S(=O)(=O)c1nnc(NC(=O)c2cccc(Cl)c2)s1`: 35.5 µM [falling, single point].
Regarding `COc1cc(C(=O)N/N=C/C2CC=CCC2)cc(OC)c1OC` (configuration not stated), the AC50 under setting [1] is 1.84 µM [rising, full curve] and the concentration at half-maximal activity (AC50) under setting [2] was 2.06 µM [falling, partial curve].
As to `CC(C)C[C@@H]1NC(=O)[C@H](Cc2ccc(O)cc2)NC(=O)c2cc([N+](=O)[O-])cc(I)c2NCCC[C@@H](C(N)=O)NC1=O`, the AC50 under setting [1] is 0.0326 µM [rising, full curve, poor fit].
With `CC(=O)Nc1ccc(S(=O)(=O)Nc2nc3c(s2)CCCC3)cc1`, the AC50 under setting [1] was 29.1 µM [falling, single point].
On to `CN(C)c1ccc(C(=O)N2CC(=O)N(CCc3ccccc3)C(=O)C2)cc1`, for which the AC50 under setting [1] was 2.51 µM [rising, partial curve].
For the compound `Cc1ccc(NC(=O)Cn2c(=O)oc3cc(S(=O)(=O)N4CCCCCC4)ccc32)cc1Cl`, under setting [1], the AC50 is 35.5 µM [rising, single point].
On the same count and under the same terms, the result for `CC(CCO)Nc1nc2c([nH]1)c(=O)n(C)c(=O)n2C` (configuration not stated) reads 4.61 µM [falling, full curve].
On the same count and under the same terms, the result for `O=C(N1CCCCC1)N1CCN(c2ccc(Cl)cc2)CC1` reads 10.3 µM [rising, partial curve]; that for `O=C(NNC(=O)c1ccc2ccccc2n1)c1ccc(O)cc1`, 1.84 µM [falling, full curve].
For `Cn1cc(S(=O)(=O)NC(c2ccccc2)c2ccccc2)c(=O)n(C)c1=O`, the AC50 under setting [1] is 22.4 µM [rising, single point].
For `CN1/C(=N\O)c2cccc3cccc1c23`, the AC50 under setting [1] is 35.5 µM [falling, single point].
For `COc1cc(C#Cc2c(-c3cncn3C)n(C)c3ccc(-c4cnc(N5CCOCC5)nc4)cc23)cc(OC)c1`, the concentration at half-maximal activity (AC50) under setting [1] was 0.366 µM [rising, full curve].
On to `O=C(Nc1ccc(F)cc1)Nc1ccc(Cl)cn1`, for which the AC50 under setting [1] is 6.51 µM [rising, single point].
Still for that read-out and setting: the same measure for `CCOc1ccccc1OCC(=O)Nc1nc2ccccc2[nH]1`: 11.2 µM [falling, partial curve]; for `CC(=O)c1cc(NC(=O)c2ccc([N+](=O)[O-])cc2)c(=O)oc1C`: 35.5 µM [falling, single point]; for `Cc1cc(C)n(-c2nc(NCCN(C)C)c3c4c(sc3n2)COC(C)(C)C4)n1`: 12.6 µM [falling, partial curve, poor fit].
For the compound `Cc1cc(=O)n(CCc2ccccc2)c(O)c1C#N`, under setting [1], the AC50 was 0.517 µM [falling, partial curve, poor fit].
The same measure, in the same setting: the result for `Cc1ccc(S(=O)(=O)N2CCCC2C(=O)OCc2nc3ccccc3s2)cc1` (configuration not stated) reads 3.26 µM [rising, full curve].
In the case of `COc1ccc(N2CCN(C(=O)CSc3nnc4c(C)cc5c(C)cc(C)cc5n34)CC2)cc1`, under setting [1], the AC50 was 13 µM [rising, partial curve].
As to `CCn1c(COc2ccc(=O)n(-c3ccccc3)n2)nnc1SCc1ccc(C)cc1`, the AC50 under setting [1] is 20 µM [falling, partial curve, poor fit].
Turning to `CN(C)Cc1c(O)ccc2oc(Cc3ccccc3)cc12`, the AC50 runs as follows: under setting [1], 10.3 µM [falling, partial curve]; under setting [2], 23.1 µM [rising, partial curve, poor fit].
For `Clc1ccccc1N=C1NN=C(c2cccs2)CS1`, under setting [1], the AC50 was 31.6 µM [falling, single point].
The same measure, in the same setting: the same measure for `C=C(C)c1cccc(C(C)(C)NC(=O)Nc2cc(C)ccn2)c1`: 18.4 µM [falling, single point].
